Source: paper PMC8750527 (Cancers, 2021)

Tests used:
HDF = assay: MTT assay, 48 h exposure, human dermal fibroblasts; assay type: cell-based; settings: Table 1, normal cells, mean ± SEM
Protocol: (§1) HDF (3000 cells), C8-D1A (5000 cells), D458 (5000 cells), DAOY (2000 cells), HD-MB03 (10,000 cells) and CHLA-01-Med (10,000 cells) were seeded at an approximate confluency of 50% in 96-well plates (Corning Inc., Corning, NY, USA) in 100 µL medium per well. A range from 50 nM to 150 µM of every drug was tested. The effects of the antiangiogenic compounds were measured using a 3-[4,5-dimethylthiazol-2yl]-diphenyltetrazolium bromide (MTT) colorimetric assay (Sigma, Lyon, France) according to the manufacturer’s instructions. When applicable, IC50 was calculated using the nonlinear regression method of the Prism 5 software (Graphpad Software Inc., San Diego, CA, USA). Alternatively, hCMEC/D3 [23] or HUVEC cells were plated at 5000 cells/well and incubated 24 h later for 2 and 3 days with 1, 5 or 25 µM of axitinib. An MTT assay was conducted as described above to assess the fitness of the cells.

C8-D1A = assay: MTT assay, 48 h exposure, murine primary astrocytes; assay type: cell-based; settings: Mus musculus, Table 1, normal cells, mean ± SEM, read-out: IC50 (µM) C8D1A
Protocol: as §1

DAOY = assay: MTT assay, 48 h exposure, DAOY MB cells; assay type: cell-based, human
Protocol: as §1

HD-MB03 = assay: MTT assay, 48 h exposure, HD-MB03 MB cells; assay type: cell-based, human
Protocol: as §1

D458 = assay: MTT assay, 48 h exposure, D458 MB cells; assay type: cell-based, human
Protocol: as §1

CHLA-01-Med = assay: MTT assay, 48 h exposure, CHLA-01-Med MB cells; assay type: cell-based, human
Protocol: as §1

[1] = test system: cocultures of HD-MB03 or DAOY with C8-D1A cells; assay: 2D coculture of MB cells and astrocytes, FACS quantification; assay type: cell-based; settings: axitinib 5 µM or etoposide 1 µM
Protocol: (§2) C8-D1A cells were stained with the green fluorescent probe neuro-DiO (cat. number 60015, Biotium, Fremont, CA, USA) according to the manufacturer’s protocol. C8-D1A-neuroDio cells (150,000) and HD-MB03-mCherry or DAOY-mCherry cells (50,000) were plated in 12-well plates. […] Fluorescence images of the cells were taken with a DMI400 inverted microscope (Leica Microsystemes SAS, Nanterre, France) equipped with a 40× objective and a Zyla 5.5 camera (Andor Technologies, Belfast, UK). The cells were then trypsinized and the number of both cell types was quantified using a Melody FACS (BD Biosciences, Frankton Lake, NJ, USA) with a 488 nm laser beam. Analysis of the FACS data was conducted with the Flowjo software (Tree Star Inc., Ashland, OR, USA).

[2] = test system: C8-D1A/HD-MB03 mixed spheroids; assay: 3D mixed spheroids of astrocytes and MB cells; assay type: cell-based; settings: 7 days; axitinib 5 µM or etoposide 1 µM
Protocol: as §2
Two thousand cells were seeded in ultralow-adhesion 96-well plates (Corning Inc., Corning, NY, USA). […] Pictures were taken with an AMG Evos microscope 40× objective (Thermo Fisher Scientific Inc, Waltham, MA, USA) and the spheroid areas were measured using the ImageJ software (NIH, Bethesda, MD, USA).

[3] = Homo sapiens, Table 1, MTT, 48 h exposure, mean ± SEM

CNC(=O)c1ccccc1Sc1ccc2c(/C=C/c3ccccn3)n[nH]c2c1 [Axitinib, axitinib]
IC50 (HDF): > 100 µM | IC50 (C8-D1A): > 100 µM | Specificity Index relative to C8D1A, DAOY (DAOY; ratio IC50 C8-D1A / IC50 DAOY): >40 | Specificity Index relative to HDF, DAOY (DAOY; ratio IC50 HDF / IC50 DAOY): >40 | IC50 (HD-MB03; Homo sapiens, HD-MB03, Table 1, MTT, 48 h exposure, mean ± SEM): 0.47 ± 0.2 µM | Specificity Index relative to C8D1A, HDMB (HD-MB03; ratio IC50 C8-D1A / IC50 HD-MB03): >200 | Specificity Index relative to HDF, HD-MB03 (HD-MB03; ratio IC50 HDF / IC50 HD-MB03): >200 | IC50 (D458; [3]): 0.49 ± 0.4 µM | Specificity Index relative to C8D1A, D458 (D458; ratio IC50 C8-D1A / IC50 D458): >200 | Specificity Index relative to HDF, D458 (D458; ratio IC50 HDF / IC50 D458): >200 | IC50 (CHLA-01-Med; [3]): 3.9 ± 0.23 µM | Specificity Index relative to C8D1A, CHLA-01-Med (CHLA-01-Med; ratio IC50 C8-D1A / IC50 CHLA-01-Med): >25 | Specificity Index relative to HDF, CHLA-01-Med (CHLA-01-Med; ratio IC50 HDF / IC50 CHLA-01-Med): >25 | enrichment of the proportion of astrocytes relative to the total number of cells [1]: 40–60% | relative fluorescence of MB vs. normal cells in mixed spheroids [2]: decrease in the relative fluorescence of MB vs. normal cells
